Measurements as given in patent US20060234276A1, “Methods of treatment of type 2 diabetes” (priority 1998, published 2006).
Some of these results come from one statement about several compounds together.

Assays:
[1] = tested on: mouse pancreatic islets; experiment: Static incubation of isolated pancreatic islets, insulin secretion; format: cell-based
Procedure: Static incubation of isolated pancreatic islets. Isolation of mouse pancreatic islets was accomplished using collagenase digestion as previously described (Pontoglio et al., 1998). […] Triplicate groups of 5 islets were then incubated in borosilicate tubes containing 1 ml of KRB with the same concentration of inhibitor and various insulin secretagogues for one hour in a moving water bath at 37° C. The reaction was stopped by placing the tubes on ice and an aliquot of the buffer was removed for measurement of insulin levels. Control studies, in which the incubation mixture contained vehicle (0.1% DMSO) only, were performed using aliquots of the same batch of islets
Assay methods. Insulin concentrations were measured by a double antibody radioimmunoassay using a rat insulin standard. The intra-assay coefficient of variation for this technique is 7%. All samples were assayed in duplicate.

[2] = tested on: β-cells; experiment: Quinacrin staining of acidic vesicles in β-cells (confocal microscopy); format: cell-based, mouse; conditions: 48 h treated cells; 1 μM quinacrin

## CCOC(=O)[C@H]1O[C@@H]1C(=O)N[C@@H](CC(C)C)C(=O)NCCC(C)C [E-64-d, ethyl (+)-(2S,3S)-3-[(S)-3-Methyl-1-(3-methylbutylcarbamoyl)butyl-carbamoyl]-2-oxiranecarboxylate]
[1]; 4 hr exposure, 20 mM glucose
  inhibitor concentration at which effects on insulin secretory response to 20 mM glucose were seen: greater than 100 μM
[1]; 4 hr exposure, no significant effects at 2, 4 or 6 mM glucose
  glucose concentration above which insulin secretory response was enhanced: above 8 mM glucose
[1]; 96 h treatment, 100 μM ALLM or 200 μM E-64-d
  inhibition of glucose-induced insulin secretion (20 mM): more than 80%
[2]
  increase in size of quinacrin-stained vesicles: more than 3 fold
